# Source: PubChem BioAssay AID504834 (National Center for Advancing Translational Sciences (NCATS), 2011)
# Out of some 320,000 compounds screened, about 22,000 (6.9%) were called active. The shares of active, inactive and inconclusive entries below differ from those in the screen. Calls follow the shape of the dose curve; as a rule, active = well fitted inhibition curve with a large enough effect; inconclusive = small, poorly fitted or top-dose-only effect, or another doubt; inactive = no such curve, though single readings can be large or run the other way. A potency beside an inconclusive call is a rough fit, not a confirmed value.
# Assay: Primary qHTS for delayed death inhibitors of the malarial parasite plastid, 96 hour incubation
# Settings: P. falciparum luciferase reporter growth; series mostly up to 28.7 µM
# In short: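 Two parasite generations (96 h, 37 C, 5% CO2) of compound exposure in infected erythrocytes (0.05% parasitemia, 2% hematocrit). Luciferase-reporter P. falciparum; decreased luminescence indicates inhibited growth, aimed at apicoplast-acting delayed death.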
# Potency is read from the fitted curve at half-maximal effect.
row,Compound,Potency
1,COc1cc(/C=C2/C(=N)N3C(=NC2=O)SN=C3S(C)(=O)=O)ccc1OS(=O)(=O)c1ccccc1,"inconclusive: 11.7 µM [inhibitor, partial curve]"
2,Cc1ccccc1N/N=C/c1sc(=O)n(Cc2cccc(C(=O)O)c2)c1Cl,"inconclusive: 18.5 µM [inhibitor, single point]"
3,CCOC(=O)C1=C(C)N=c2s/c(=C\c3ccc(OCC(=O)O)c(OC)c3)c(=O)n2C1c1ccc(OC)cc1 (stereo not drawn),"inconclusive: 18.5 µM [inhibitor, single point]"
